{
  "source": "paper PMC12187018",
  "target": "T1, Flag-P2X7 (R) (UniProt Q99572)",
  "T1 sequence": "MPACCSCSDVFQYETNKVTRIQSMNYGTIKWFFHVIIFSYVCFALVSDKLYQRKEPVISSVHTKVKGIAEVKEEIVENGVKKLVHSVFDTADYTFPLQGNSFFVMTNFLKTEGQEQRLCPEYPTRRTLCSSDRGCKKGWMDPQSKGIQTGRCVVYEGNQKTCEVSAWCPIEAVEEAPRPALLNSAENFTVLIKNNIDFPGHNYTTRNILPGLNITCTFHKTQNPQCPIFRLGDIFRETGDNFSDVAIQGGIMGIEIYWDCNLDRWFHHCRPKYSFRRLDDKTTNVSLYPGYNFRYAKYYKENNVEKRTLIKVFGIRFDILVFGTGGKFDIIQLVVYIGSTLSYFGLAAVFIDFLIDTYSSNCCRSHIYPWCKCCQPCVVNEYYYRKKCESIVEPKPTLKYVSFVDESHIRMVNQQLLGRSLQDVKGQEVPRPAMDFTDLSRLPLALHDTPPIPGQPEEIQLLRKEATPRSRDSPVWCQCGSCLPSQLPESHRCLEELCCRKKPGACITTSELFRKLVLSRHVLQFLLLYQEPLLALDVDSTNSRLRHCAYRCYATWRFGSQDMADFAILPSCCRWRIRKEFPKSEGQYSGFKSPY",
  "assay": "co-IP; 293T cells co-transfected with HA-Env (virulent or vaccine) and one Flag-tagged host protein; lysis in 1% Triton X-100, 50 mM Tris-HCl pH 7.4, 150 mM NaCl; anti-Flag or anti-HA magnetic beads overnight; also done with 50 μM KCl (S2 Fig B-C)",
  "note": "No constants are given. Whether binding was seen depends on the method and setting. Binding seen in cells or lysates may run through a third protein. Binding calls can cover weak binding; strength is not graded here. Where a sequence is shown, tags or fusion partners need not be part of it.",
  "data": [
    {"substance": "HA-Env of the attenuated EIAV vaccine strain (vaccine-Env)", "values": [
      {"measurement": "binding", "value": "binds"}
    ]}
  ]
}
